Source: paper PMC9569420 (Communications Biology, 2022)

Test system: Akt (pAkt T308) in HaCat cells
Assay: Akt phosphorylation in response to insulin (confocal)
Type: cell-based, human
Settings: insulin 10 μM, permeabilized cells

CN[C@@H]1C[C@H]2O[C@@](C)([C@@H]1OC)n1c3ccccc3c3c4c(c5c6ccccc6n2c5c31)C(=O)NC4 [Staurosporine, reference compound]
lowest dose inhibiting intracellular Akt phosphorylation: 0.1 µM
